Measured values as given in US20140228219A1, “CYCLOHEXANONE COMPOUNDS AND HERBICIDES COMPRISING THE SAME” (priority 2011, published 2014).
Some results were stated once for a whole list of compounds, not compound by compound.

What was measured:
Format in all cases: in vivo
Echinochloa crus-galli [1] = assay: Test 1-1 Post-Emergence Treatment Test; settings: sprayed on whole plants at 1-2 leaf stages, treatment amount 1.000 g/10000 m^2, after 20 days of the treatment, greenhouse
Echinochloa crus-galli [2] = assay: Test 2-1 Pre-Emergence Treatment Test; settings: sprayed on the soil surface after sowing, treatment amount 1.000 g/10000 m^2, after 3 weeks of the spraying, greenhouse
Galium aparine = assay: Test 1-2 Post-Emergence Treatment Test; settings: sprayed on whole plants at 1-2 leaf stages, treatment amount 1.000 g/10000 m^2, after 20 days of the treatment, greenhouse

SMILES | efficacy for Echinochloa crus-galli (controlling effect, visually observed, 11 criteria of 0 to 10) (Echinochloa crus-galli [1]) | efficacy for Echinochloa crus-galli (visually observed, 11 criteria of 0 to 10) (Echinochloa crus-galli [2]) | efficacy for Galium aparine (visually observed, 11 criteria of 0 to 10) (Galium aparine)
CCc1ccccc1C1=C(O)CC(C(C)CSc2ccc(C(F)(F)F)cn2)CC1=O (centres unmarked) [Compound 1-97] | ≥ 9 | ≥ 7 | 
Cc1cc(C)c(C2=C(O)CC(C(C)CSc3ccc(C(F)(F)F)cc3)CC2=O)c(C)c1 (centres unmarked) [Compound 1-12] |  |  | ≥ 7
Cc1cc(C)c(C2=C(O)CC(CCSc3ccc(C(F)(F)F)cn3)CC2=O)c(C)c1 (centres unmarked) [Compound 1-5] |  |  | ≥ 7
Cc1cc(C)c(C2=C(O)CC(C(C)CSc3ccc(C(F)(F)F)cn3)CC2=O)c(C)c1 (centres unmarked) [Compound 1-14] |  |  | ≥ 7
O=C1CC(CCSc2ccc(C(F)(F)F)cc2)CC(O)=C1c1ccccc1C1CC1 (centres unmarked) [Compound 1-102] | ≥ 9 | ≥ 7 | 
COc1ccccc1C1=C(O)CC(CCSc2ccc(C(F)(F)F)cc2)CC1=O (centres unmarked) [Compound 1-105] | ≥ 9 |  | 
